{"source": "paper PMC8298490", "about": "“Structure and function of an Arabidopsis thaliana sulfate transporter” (Nature Communications, 2021)", "binders": {"B1": {"name": "AtSULTR4;1 ΔSTAS (domain or fragment, UniProt Q9FY46 24-502)", "chain": "SSLKPPGQTRPVKVIPLQHPDTSNEARPPSIPFDDIFSGWTAKIKRMRLVDWIDTLFPCFRWIRTYRWSEYFKLDLMAGITVGIMLVPQAMSYAKLAGLPPIYGLYSSFVPVFVYAIFGSSRQLAIGPVALVSLLVSNALGGIADTNEELHIELAILLALLVGILECIMGLLRLGWLIRFISHSVISGFTSASAIVIGLSQIKYFLGYSIARSSKIVPIVESIIAGADKFQWPPFVMGSLILVILQVMKHVGKAKKELQFLRAAAPLTGIVLGTTIAKVFHPPSISLVGEIPQGLPTFSFPRSFDHAKTLLPTSALITGVAILESVGIAKALAAKNRYELDSNSELFGLGVANILGSLFSAYPATGSFSRSAVNNESEAKTGLSGLITGIIIGCSLLFLTPMFKYIPQCALAAIVISAVSGLVDYDEAIFLWRVDKRDFSLWTITSTITLFFGIEIGVLVGVGFSLAFVIHESANPHIA"}}, "target": "AtSULTR4;1 ΔSTAS (Arabidopsis thaliana) (UniProt Q9FY46)", "assay": "SEC; purified protein on SRT-3C SEC-300 column, 20 mM HEPES, 150 mM NaCl, 5 mM BME, 0.01% LMNG; elution profile compared with wild type; both purified", "note": "No constants are given. Whether binding was seen depends on the method and setting.", "data": [{"binder": "B1", "values": [{"measurement": "binding", "value": "no binding"}]}]}
